From the supplement of paper PMC11348887 come the findings set out here.

Structures can show the parent of a compound that is named as a salt. Some of the results follow. Small differences around the control level are noise.

Details in all cases: 5 µM; treatment: days 7-14 after plating, readout day 21
Experiment [1] relates to hPSC-derived cortical neurons (WA09). As to the kind of experiment: nucleus area z-score vs screen plate; higher = larger nuclei (more mature).
Experiment [2] shares this test system. As to the kind of experiment: total neurite length per nucleus (MAP2) z-score; higher = more neurite growth.
Experiment [3] shares this test system. In words: nucleus roundness z-score vs screen plate; higher = rounder nuclei (more mature).
For experiment [4] the test system is unchanged. In words: KCl-induced FOS+/EGR-1+ double-positive nuclei fraction z-score (KCl minus unstimulated); higher = stronger activity-induced IEG response.

For `COc1ccc(CC2NCCc3cc(OC)c(OC)cc32)cc1OC` (configuration not stated) [Tetrahydropapaverine HCl], the nucleus area z-score in experiment [1] is 0.443. Further, the “total neurite length per nucleus (z-score)” value in experiment [2] turned out to be 1.15. In experiment [3], the nucleus roundness z-score worked out at 0.259. Besides, the “KCl-induced FOS+/EGR-1+ double-positive nuclei fraction z-score” value in experiment [4] came to 0.254.
Turning to `C[C@]12N[C@H](Cc3ccccc31)c1ccccc12` [MK-801 (Dizocilpine)], the nucleus area z-score in experiment [1] was 0.697. The “total neurite length per nucleus (z-score)” value in experiment [2] was -0.211. Also, the nucleus roundness z-score in experiment [3] is -0.575. In addition, the “KCl-induced FOS+/EGR-1+ double-positive nuclei fraction z-score” value in experiment [4] was -0.321.
For the compound `CCOc1ccccc1-n1c(C(C)N2CCN(C(=O)COc3ccc(Cl)cc3)CC2)nc2ccccc2c1=O` (configuration not stated) [Erastin], in experiment [1], the nucleus area z-score is -0.715. Besides, the “total neurite length per nucleus (z-score)” value in experiment [2] worked out at 0.984. Besides, the nucleus roundness z-score in experiment [3] was 0.544. Moreover, the “KCl-induced FOS+/EGR-1+ double-positive nuclei fraction z-score” value in experiment [4] is -0.436.
Turning to `O.O.O.O=C([O-])C1[O][Sb]2[O]C(=O)C([O]2)C(C(=O)[O-])[O][Sb]2[O]C(=O)C1[O]2.[K+].[K+]` (configuration not stated) [Antimonyl potassium tartrate trihydrate], the nucleus area z-score in experiment [1] is -11.5. Besides, the “total neurite length per nucleus (z-score)” value in experiment [2] is -5.24. Besides, the nucleus roundness z-score in experiment [3] is -7.07. Besides, the “KCl-induced FOS+/EGR-1+ double-positive nuclei fraction z-score” value in experiment [4] is -0.642.
The corresponding values for `CC(C)[C@]12O[C@H]1[C@@H]1O[C@]13[C@]1(O[C@H]1C[C@H]1C4=C(CC[C@@]13C)C(=O)OC4)[C@@H]2O` [Triptolide (PG490)] are 0.551, 0.799, 0.681 and 0.353.
On the same counts, the results for `C[C@H]1CCC/C=C/[C@@H]2C[C@H](O)C[C@H]2[C@H](O)/C=C/C(=O)O1` [Brefeldin A] are -19.1, -5.99, -5.39 and -1.44.
In experiment [1], `NC[C@H](CC(=O)O)c1ccc(Cl)cc1` [(R)-baclofen] came in with a nucleus area z-score of 2.2. The “total neurite length per nucleus (z-score)” value in experiment [2] was -2.7. Also, in experiment [3], the nucleus roundness z-score was -3.29. Also, in experiment [4], the “KCl-induced FOS+/EGR-1+ double-positive nuclei fraction z-score” value is -0.41.
Consider `CN(C)Cc1c[nH]c2ccccc12` [Gramine], for which the nucleus area z-score in experiment [1] was -1.25. Also, the “total neurite length per nucleus (z-score)” value in experiment [2] is -0.235. In experiment [3], this compound displayed a nucleus roundness z-score of 0.116. Moreover, the “KCl-induced FOS+/EGR-1+ double-positive nuclei fraction z-score” value in experiment [4] came to 0.235.
In the case of `O=c1[nH]c2ccc(Cl)cc2c(N[C@@H]2CN3CCC2CC3)c1-c1nc2ccccc2[nH]1`, the nucleus area z-score in experiment [1] is -13.8. Besides, the “total neurite length per nucleus (z-score)” value in experiment [2] is -5.53. In experiment [3], the nucleus roundness z-score is -3.5. Also, the “KCl-induced FOS+/EGR-1+ double-positive nuclei fraction z-score” value in experiment [4] is 5.21.
For the compound `CCN1CC2(OC(=O)c3ccccc3NC(C)=O)CCC(OC)C34C1C(CC23)C1(O)CC(OC)C2CC4C1(O)C2OC` (configuration not stated) [Lappaconite HBr], the nucleus area z-score in experiment [1] was -0.133. The “total neurite length per nucleus (z-score)” value in experiment [2] is -0.411. In experiment [3], the nucleus roundness z-score is -0.399. The “KCl-induced FOS+/EGR-1+ double-positive nuclei fraction z-score” value in experiment [4] was determined as 0.31.
On the same counts, the results for `CC[C@@H]1/C=C/C=C/C[C@H](C)[C@H](O)[C@](C)(O)C(=O)[C@H](C)[C@@H](O)[C@H](C)C(=O)[C@H](C)[C@@H](O)[C@H](C)/C=C/C(=O)O[C@H]2[C@@H](C)[C@@H](CC1)O[C@@]1(CC[C@@H](C)[C@@H](C[C@H](C)O)O1)[C@@H]2C` [Oligomycin A] are 0.105, -0.65, -1.36 and -0.64.
Turning to `Cc1cccc(C(C)c2c[nH]cn2)c1C` (configuration not stated) [Medetomidine HCl], the nucleus area z-score in experiment [1] was 0.489. For the same compound, in experiment [2], the “total neurite length per nucleus (z-score)” value is 0.212. In addition, in experiment [3], the nucleus roundness z-score is -0.0345. For the same compound, in experiment [4], the “KCl-induced FOS+/EGR-1+ double-positive nuclei fraction z-score” value was -0.598.
For `N[C@@H]1C[C@H]1c1ccccc1` [Tranylcypromine (2-PCPA) HCl], the nucleus area z-score in experiment [1] was 1.68. In experiment [2], the “total neurite length per nucleus (z-score)” value is 1.22. In experiment [3], the nucleus roundness z-score was 0.596. Further, the “KCl-induced FOS+/EGR-1+ double-positive nuclei fraction z-score” value in experiment [4] was determined as 4.83.
In turn, `CC[C@@]1(O)C(=O)OCc2c1cc1n(c2=O)Cc2cc3ccccc3nc2-1` [Camptothecin] gave a nucleus area z-score in experiment [1] of 0.154. In addition, the “total neurite length per nucleus (z-score)” value in experiment [2] was -0.682. Further, the nucleus roundness z-score in experiment [3] was -0.688. Also, the “KCl-induced FOS+/EGR-1+ double-positive nuclei fraction z-score” value in experiment [4] is -1.19.
In the case of `CC(=O)NC1CCSC1=O` (configuration not stated) [Citiolone], the nucleus area z-score in experiment [1] was -0.0481. Further, the “total neurite length per nucleus (z-score)” value in experiment [2] is -0.528. Moreover, the nucleus roundness z-score in experiment [3] is -0.134. Also, the “KCl-induced FOS+/EGR-1+ double-positive nuclei fraction z-score” value in experiment [4] is -0.731.
`Nc1nc(N)nc(NC2CC2)n1` [Cyromazine] had a nucleus area z-score in experiment [1] of 0.305. Besides, in experiment [2], the “total neurite length per nucleus (z-score)” value was 0.693. Further, the nucleus roundness z-score in experiment [3] came to 0.402. The “KCl-induced FOS+/EGR-1+ double-positive nuclei fraction z-score” value in experiment [4] came to 1.14.
On the same counts, the results for `CCCN1CCO[C@@H]2c3cc(O)ccc3OC[C@H]21` are 0.947, 0.405, 0.56 and 0.838.
On to `CC(C)(C)[C@]1(O)CC2OC(=O)CC23C(=O)OC2OC(=O)[C@H](O)C231` (some centres not stated) [Bilobalide], for which the nucleus area z-score in experiment [1] stood at 0.391. Further, the “total neurite length per nucleus (z-score)” value in experiment [2] was 0.0272. The compound further had a nucleus roundness z-score in experiment [3] of 0.188. The “KCl-induced FOS+/EGR-1+ double-positive nuclei fraction z-score” value in experiment [4] is 1.84.
The corresponding values for `C[C@@H]1CC[C@H]2[C@@H](C)C(=O)O[C@@H]3O[C@@]4(C)CC[C@@H]1[C@]32OO4` [Artemisinin] are 0.595, 0.066, 0.258 and -1.35.
In experiment [1], `C=CCN1CC[C@]23c4c5ccc(O)c4O[C@H]2C(=O)CC[C@@]3(O)[C@H]1C5` [Naloxone HCl Dihydrate] yielded a nucleus area z-score of 0.38. In addition, in experiment [2], the “total neurite length per nucleus (z-score)” value is 0.17. The same compound yielded a nucleus roundness z-score in experiment [3] of 0.48. The “KCl-induced FOS+/EGR-1+ double-positive nuclei fraction z-score” value in experiment [4] is 0.835.
Take `COc1cc([C@@H]2c3cc4c(cc3[C@H](O)[C@H]3COC(=O)[C@@H]23)OCO4)cc(OC)c1OC` [Picropodophyllin (PPP)]: the nucleus area z-score in experiment [1] was -4.26. For the same compound, the “total neurite length per nucleus (z-score)” value in experiment [2] was -1.54. Moreover, the nucleus roundness z-score in experiment [3] was -2.44. Besides, in experiment [4], the “KCl-induced FOS+/EGR-1+ double-positive nuclei fraction z-score” value is -0.622.
In experiment [1], `NCCc1c[nH]c2ccc(O)cc12` [Serotonin HCl] came in with a nucleus area z-score of 0.423. Besides, the “total neurite length per nucleus (z-score)” value in experiment [2] was -0.0255. This compound also displayed a nucleus roundness z-score in experiment [3] of 0.934. In addition, the “KCl-induced FOS+/EGR-1+ double-positive nuclei fraction z-score” value in experiment [4] came to 0.578.
The corresponding values for `COc1ccc(C(=O)N2CCCC2=O)cc1` [Aniracetam] are 0.944, 0.779, 0.613 and 2.03.
In the case of `O=C(O)CNC(=O)C1C(=O)N(C2CCCCC2)C(=O)N(C2CCCCC2)C1=O`, the nucleus area z-score in experiment [1] was found to be 0.734. Also, the “total neurite length per nucleus (z-score)” value in experiment [2] was found to be 0.833. In experiment [3], this compound came in with a nucleus roundness z-score of 0.947. Moreover, the “KCl-induced FOS+/EGR-1+ double-positive nuclei fraction z-score” value in experiment [4] is 1.61.
For `NC(=O)C[S@@+]([O-])C(c1ccccc1)c1ccccc1` [Armodafinil], the nucleus area z-score in experiment [1] was determined as 0.689. In addition, in experiment [2], the “total neurite length per nucleus (z-score)” value came out at 0.249. The compound also registered a nucleus roundness z-score in experiment [3] of 1.11. The “KCl-induced FOS+/EGR-1+ double-positive nuclei fraction z-score” value in experiment [4] worked out at 2.21.
The corresponding values for `Cc1cccc([C@H](C)c2c[nH]cn2)c1C` [Dexmedetomidine] are 0.17, 0.414, 0.203 and 2.11.
On to `NCC(=O)O.[C-]#[O+].[C-]#[O+].[C-]#[O+].[Cl][Ru]`, for which the nucleus area z-score in experiment [1] worked out at 1.44. Also, the “total neurite length per nucleus (z-score)” value in experiment [2] is 0.262. In addition, the nucleus roundness z-score in experiment [3] is -0.0913. Further, the “KCl-induced FOS+/EGR-1+ double-positive nuclei fraction z-score” value in experiment [4] amounted to 0.0679.
On the same counts, the results for `C=CN1CCCC1=O.II` [Povidone iodine] are 2.21, 0.429, 0.23 and 1.16.
